The nature of this series: general procedure: solution-phase peptide synthesis. To be noted: for step yield: coupling step.

Consider 2 substances from US7674768 (dated 2010).

Non-standard residues stand in square brackets, D forms with d. *: point of attachment. Fmoc = O=C(OCC1c2ccccc2-c2ccccc21)*; hArg = N=C(N)NCCCC[C@H](N)C(=O)O; OtBu = CC(C)(C)O*

As to Fmoc-[hArg]GD(OtBu)WP-OH, the step yield is 82.3% (net yield, based on nitrogen content 96.0%) and 81.8% (recovery yield).

As for [MPA-Har-Gly-Asp-Trp-Pro-Cys](NH2), the “crude HPLC purity” value (late stage modification step, 220 nm) is 45.8%.
